These are yes or no findings as the source states them, for the method shown. A result given as binding can be weak or reduced; the word gives no strength. Where a sequence is shown, tags or fusion partners need not be part of it.

What all share (test): two-hybrid; yeast two-hybrid; bait from pDEST32 (GAL4 DNA-binding domain), prey from pDEST22 (GAL4 activation domain); growth on double and triple dropout media (-L -W -H) with different concentrations of 3-AT, dilution series
Test [1] addresses C-terminal fragment of DIG1 (DIG1-C), yeast two-hybrid fusion (Arabidopsis thaliana).
The target in test [2] is DIG-Like1 (DIL1), yeast two-hybrid fusion (Arabidopsis thaliana) (UniProt Q9FGW7).
In test [3] the target is AtSDR4L-CΔ6aa (AtSDR4L-C without the last 6 residues), yeast two-hybrid fusion (Arabidopsis thaliana).
The target in test [4] is DIG1-CΔ8aa (DIG1-C without the last 8 residues), yeast two-hybrid fusion (Arabidopsis thaliana).

B1: VIVIPAROUS1/ABI3-LIKE 2 (VAL2), full length, yeast two-hybrid fusion (protein, UniProt Q5CCK4 1-780)
chain: MESIKVCMNALCGAASTSGEWKKGWPMRSGDLASLCDKCGCAYEQSIFCEVFHAKESGWRECNSCDKRLHCGCIASRFMMELLENGGVTCISCAKKSGLISMNVSHESNGKDFPSFASAEHVGSVLERTNLKHLLHFQRIDPTHSSLQMKQEESLLPSSLDALRHKTERKELSAQPNLSISLGPTLMTSPFHDAAVDDRSKTNSIFQLAPRSRQLLPKPANSAPIAAGMEPSGSLVSQIHVARPPPEGRGKTQLLPRYWPRITDQELLQLSGQYPHLSNSKIIPLFEKVLSASDAGRIGRLVLPKACAEAYFPPISLPEGLPLKIQDIKGKEWVFQFRFWPNNNSRMYVLEGVTPCIQSMQLQAGDTVTFSRTEPEGKLVMGYRKATNSTATQMFKGSSEPNLNMFSNSLNPGCGDINWSKLEKSEDMAKDNLFLQSSLTSARKRVRNIGTKSKRLLIDSVDVLELKITWEEAQELLRPPQSTKPSIFTLENQDFEEYDEPPVFGKRTLFVSRQTGEQEQWVQCDACGKWRQLPVDILLPPKWSCSDNLLDPGRSSCSAPDELSPREQDTLVRQSKEFKRRRLASSNEKLNQSQDASALNSLGNAGITTTGEQGEITVAATTKHPRHRAGCSCIVCSQPPSGKGKHKPSCTCTVCEAVKRRFRTLMLRKRNKGEAGQASQQAQSQSECRDETEVESIPAVELAAGENIDLNSDPGASRVSMMRLLQAAAFPLEAYLKQKAISNTAGEQQSSDMVSTEHGSSSAAQETEKDTTNGAHDPVN
Turning to B1, the binding result in test [1], in test [2], in test [3] and in test [4] was “binds” each time.

B2: VIVIPAROUS1/ABI3-LIKE 1 (VAL1), yeast two-hybrid fusion (protein, UniProt Q8W4L5 1-790)
chain: MFEVKMGSKMCMNASCGTTSTVEWKKGWPLRSGLLADLCYRCGSAYESSLFCEQFHKDQSGWRECYLCSKRLHCGCIASKVTIELMDYGGVGCSTCACCHQLNLNTRGENPGVFSRLPMKTLADRQHVNGESGGRNEGDLFSQPLVMGGDKREEFMPHRGFGKLMSPESTTTGHRLDAAGEMHESSPLQPSLNMGLAVNPFSPSFATEAVEGMKHISPSQSNMVHCSASNILQKPSRPAISTPPVASKSAQARIGRPPVEGRGRGHLLPRYWPKYTDKEVQQISGNLNLNIVPLFEKTLSASDAGRIGRLVLPKACAEAYFPPISQSEGIPLKIQDVRGREWTFQFRYWPNNNSRMYVLEGVTPCIQSMMLQAGDTVTFSRVDPGGKLIMGSRKAANAGDMQGCGLTNGTSTEDTSSSGVTENPPSINGSSCISLIPKELNGMPENLNSETNGGRIGDDPTRVKEKKRTRTIGAKNKRLLLHSEESMELRLTWEEAQDLLRPSPSVKPTIVVIEEQEIEEYDEPPVFGKRTIVTTKPSGEQERWATCDDCSKWRRLPVDALLSFKWTCIDNVWDVSRCSCSAPEESLKELENVLKVGREHKKRRTGESQAAKSQQEPCGLDALASAAVLGDTIGEPEVATTTRHPRHRAGCSCIVCIQPPSGKGRHKPTCGCTVCSTVKRRFKTLMMRRKKKQLERDVTAAEDKKKKDMELAESDKSKEEKEVNTARIDLNSDPYNKEDVEAVAVEKEESRKRAIGQCSGVVAQDASDVLGVTELEGEGKNVREEPRVSS
Turning to B2, the binding entry in test [2] is on record as “no binding”.

Source of the values: publication PMC11288726.
